Among the data in the RNAGym collection of RNA variant scans (doi:10.1126/science.aae0568) are yeast fitness values, retold here.

Variants at the background level are over-represented here. A value given as a limit tells only on which side of the number the result lay.

The labels stand for the following.
B1: tRNA (parent)
chain: GUUCCGUUGGCGUAAUGGUAACGCGUCUCCCUCCUAAGGAGAAGACUGCGGGUUCGAGUCCCGUACGGAACG

In this data set the parent is B1. The experiment in a line: yeast fitness relative to wild type (ratio to wild type); higher = fitter; tRNA-Arg(CCU), competitive growth, 37 C, YPD. The essentials:
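Start and end populations of a pooled competition were compared by 100-nucleotide paired-end sequencing of gene amplicons. The Saccharomyces cerevisiae strains carried tRNA-Arg(CCU) gene variants at the native genomic locus, synthesised with a 3% per-site mutation rate at 69 sites, and competed in YPD at 37°C for 24 hours in six parallel replicates. Darwinian fitness relative to wild type was based on the change in genotype frequencies. Genotypes required ≥ 100 starting reads, and estimates < 0.5 were set to 0.5.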
For GUUCAGUUGGCGUAAUAGUACCGCGUCUCCCUGCUAAGGAGAUGACUGCGGGUUUGAGUCCCGUACGGAACG, the yeast fitness is no more than 0.5. Turning to GUUCUGUUGGCGUAAUGGUAGCGAGUCUCCCUCCUAUGGAGAAGACUGCGGGUUCGAGUCCCGUACGGAACG, the yeast fitness is no more than 0.5.

Consider GUUCCGUUGGCGUAAUGGUAACGGAUCUCCCUCCUAAGGAGAGGACUGCGGGUUCGAGUCCCGUACGGAACG, for which the yeast fitness was no more than 0.5. The result for GUUCCGUUGGCGUAAUGGUAACGCGUCUCUCUCCUAAGGAGAAGACUGCGGGUUUGAGUCCCGUACGCAACG reads no more than 0.5; that for GUUCCCCUGGCGUAAUGGUAACGUGUCUGCCUCCUAAGGAGAAGACUGCCGGUUCGAGUCCCGUAUGGAACG, no more than 0.5.

Consider GUUCCGUUGGUGUAAUGGUAACGCGUCUCGCUCCUAAGGAGAAGACUGCGGGUUCGAGUCUCGUACGAAACG, for which the yeast fitness was no more than 0.5. With GUUCCGUUGGCGUAAUGGUAACGCGUCUCCCUCCUAUGGAGAAGACUGCGAGUUCGAGCCCCGUACGGAACG, the yeast fitness was no more than 0.5. On to GUUCCGUUGGCGUAAUGGUAACGAGUCUCCCUCCUAAGGAGAAGGCUGCGGGUACGAGUCCCGUACGGAACG, for which the yeast fitness is no more than 0.5. On to GUUCCGUUGGCGUAAUGGUAACGCGUCUCCCUCCUUAGGAGAAGACUGCGGGUUCGAGUCCUGUACGGCACG, for which the yeast fitness was no more than 0.5.

Turning to GUUCCGUUGGCGUACUGGUAACGCGUCUCCCUCCUAAGGAGAAGAUUGCGGGUUCGAGUCCCGUACGGUACG, the yeast fitness came to 0.814. With GUUCCGUUGGCGUAAUGGUAACGCGUCUCCCUCCUAAGGACAUGACUGCGGGUUCGAGUCCCGUACGUAACG, the yeast fitness is no more than 0.5. For GUUCCGUUGGCGUAAAAGUAAGGCGUCUCCCUCCUAAGGAGAAGACUGCGGGAUCGAGUCCCGUACGGCACG, the yeast fitness was no more than 0.5. The result for GUUCCGUUGGCGUAUUGGUAGCGUGUCUCCCUUCUAAGGCGACGACUGUGGGUUCGAGUCCCGUACGGAACG reads no more than 0.5. Turning to GUUCCGAUGGCGUAAUGGUAACGCGUCUCCCUCCUCAGGAGAAGACUGCGGGUUUGAGUCCCGUACGGAACG, the yeast fitness is no more than 0.5. With GUUACGUUGGGGGAAUGGUAACGCAUCUCCCUCCUAAGGAGAAGACUGCGGGUUCGAAUCCCGUACGGAACG, the yeast fitness is no more than 0.5. For GUUCCGUUGGCGUAAUGGAAACGCGUCUCCCUCCUAAGGAGAAGAUUGCGGGUUCGCGUCCCGUACGGACCG, the yeast fitness was no more than 0.5. Next, GUUCCGUUGGCGUACUGGUAACGCGUCUCCCUCCUAAGGAGAAGACUGCGGGUUCGACUCCCAUACGGAACG: no more than 0.5; GUUCCGUUGGCGUAAUGGUAACGCGUCCCCCUCUUCAGGAGAAGACUGCGGGUUCGAGUCCCGUACCGAACG: no more than 0.5; GAUCCGUUGGCGUAAUGGUAACGCGUCUCCGUCCUAAGGAGAAGACUGCGGGUUCGAGUACCGUAGGGAACG: no more than 0.5. Take GUUCCGUUGGUGUAAUGGUAACGCGUGUCCCUCCUAAGGAGAUGACUGCGGGUUCGAGUCCCAUACGGAACG: the yeast fitness was no more than 0.5. As to GUUCCGUUGGCGUAAUGGUAACGCAUCUCCAUCCUAAGGAGAACACUGCGGGUUCGAGUCCCGUACGGAACG, the yeast fitness worked out at 0.597. For GUUGCGUUGGCGUAAUGAUAACGCGUCUCUCUCCUAAGGAGAAGACUGCGGGUUCGAGUCCCGUACGGUACG, the yeast fitness was no more than 0.5. Turning to GUUCCGUUGGCGCAAUGGUUACGCGUCUCCCUCCUAAGCAGACGACUGAGGGAUCGAGUCCCGUACGGAACG, the yeast fitness was no more than 0.5. GUUCCGUUGGCGUAAUGGUAACGCGUCUCCCUCCUAAGGAGAAGACUGCGGGUUCGCGUCCCAUACAGAACG: the yeast fitness was no more than 0.5. Take GUUCCAUUGGCGUAAUGGUAACGCGUCUCCAUCCUAAGGAGAAGACUGCGGGUUCGAGUACCGUACGGAACG: the yeast fitness is no more than 0.5.

Consider GUUCCGUUGGCGUAAUGGUAGCGCGUCUCCCUCCUUAGGAGAUGACUGCGGGUUCGAGUCCAGUACGGAACG, for which the yeast fitness was no more than 0.5.

Take GUUCCGUUGGUGUAAUGGUAACGCGUCUCCCUCCUAAGCAGAAGACUGCGGGUUCGAGUCCUCUACGGAACG: the yeast fitness was no more than 0.5. Next, GUUCCGUUCGCGUAAUGGUAACGCGCCUCCCUCCUAAGGAGAAGACUGCGGGUGCGAGUCCCGUACGGAACG: no more than 0.5; GUUCCGUUAGCGUAAUGGUAACGCGUCUCCCUCGUAACGAGAAGACUGCGGGUUCGAGUCCCGUACGGAACG: no more than 0.5; GUUCCGUUGGCGUAAUGGUAACGCGUCUCCCUCCUAUGGCGGAGACUGCGGGUUCGAGUCCUGUACGGAACG: no more than 0.5.

As for GUUCCGUUGGCGUAAUGGUAACGCGUCUGCCUCCUAAGGAGAAGACUGGGGGUUUGAGUCCCGUACGGAACG, the yeast fitness is no more than 0.5. GUGGCGUUGGCGUAAUGGUAACGCGUUUCCCUCCUAAGGAGAAGACUGCGGGUUCGAGUCCCGUACGGACCG: the yeast fitness was no more than 0.5. GUUCCGUUGGCGUAAUGGUAACGUGUCUCACUCCUAAGGAGAAGACUGCAGGUUCGAGUCCCGUACGGAACG: the yeast fitness worked out at 0.587. In the case of GUUCCGUUGGCGUAAUGGUAACGCGUCUCCCUCCUACGGAGAAGACUGCGGGUUCGAGUUCCGUACGGACCG, the yeast fitness turned out to be 0.546. The result for GUUCCGUUGGCGUAAUGGUAACGGGUCUCCCUCCUCAGGAGUGGACUGCGGGUUCGAGUCCCGUACGGAACG reads no more than 0.5. GUUCCGUUGGCGUAAUGGUAACGCUUCUCCCUCCUUAGGAGAAGACUGCGGGUUCGAGUCCCGUACCGAACG: the yeast fitness is no more than 0.5. Next, GUUUCGUUGGCGUAAUGGUGACGCGUCUCCCUCCUAAGGAGAAGACUGCGGGUUCAAGUCCCGUGCGGAACG: no more than 0.5. Turning to GUUCCGUUGGCGUAAUGAUAACGCGUUUCCAUCCUAAGGAGAAGACUGCGGGUUCGAGUCCCGUACGGGACG, the yeast fitness is no more than 0.5. As to GUUCCGUUGGCGUAAUCGUGACGCGUCUCCCUCCUAAGGAGAAGACUGCGGGUUCGGGUCCUGUACGGAACG, the yeast fitness is no more than 0.5. Next, GUUCCGUUGGCGCAAUGGUAACGCGUCUCCCUCCUAACGAGAAGACUGCGGGUUCGAGUCCCGUACGGAACG: 0.644; GUUCCGUUGGCGUAAUGCUAACGCGUCUCCCUCCUAAGGACACGACUGCGGGUUCGAGUCCCGUACGGAACG: no more than 0.5. As for GAUCCGUUCGCGUAAGGGUAACGCGUCUCCCGCCUAAGGAGAAGACUGCGGAUUCGAGUCCCCUACGGAACG, the yeast fitness is no more than 0.5. Turning to GUUCCGUUGGCGUAAUCGUAACUCGUCACCGUCCUAAGGAGAAGACUGCGGGUUCGAGUCCCGUGCGGAACG, the yeast fitness is no more than 0.5. Take GUUCCGUUGGCGUAAUGGUAACGCGUCUCCCUCAUAAGGAGAAGACUGCGGGUACGAGUCCCGUACAGAACG: the yeast fitness is no more than 0.5. As to GUUCCGUUGGCGUAAUGGUAACGCGUAUCCCUCCUAAGGAGAAGACUGCGGGUUCGAGUUGCGUGCGGAACG, the yeast fitness worked out at 0.598. GUUCCAUUGGUGUAAUGGUAACGCGUCUCCCUCCUAAGGAGAAGACUGCAGGUUCGAGUCCCGUACGGAUCG: the yeast fitness is no more than 0.5. Consider GUUCCGUCGGCGUAAUGGCAACGCGUCUCCCUCCUAAGGAGAAGACUGCGGGUUCGAGUCCCGUACGGAACG, for which the yeast fitness stood at 0.978. The result for GUUCCGUUGGCGUAAUGGUAACGCGUCUCCCUCCUAAGGAGAGGACUGCGGGUUCGACUCCCGUACGGAACG reads 0.855; that for GUUCCGUUGGCGUAAUGGUAACGCGUCUCCCUCCUAAGGACAAGACUGAGGAUUCGAGUCCCGUACGGCACG, no more than 0.5; that for GUUCCGUUGGCGUAGUGGUAGCGCGUCUGCCUCCUAAGGAGAAGACUGCGGGUUAGAGUCCCGUAAGGAACG, no more than 0.5.

GUUCAGUUGGCGUAGUGGUAACGCGUCUCCCUCCUAAGGAGAAGACUGCGGGUUCGAGUCACGUACGGAACG: the yeast fitness was no more than 0.5. For the variant GUUCCGUUGACGUAAUGGUACCGCGUCUCCCUCCUAAGGAGAAGACUGCGGGUUCGAGUCCCGUAGGGAACG, the yeast fitness was no more than 0.5.

As to GCUCCGUUGGCGUAAUGGUAACGCGUCUCCCUCCUAAGGAGAAGACUGCGGGUUUGAGUCCCGUACGGAACG, the yeast fitness amounted to 0.792. Take GUUCCGUUGGCGUAAUGGUAACGCGUCUCCCUCCUAAGGCGAAGACUGCGGGUUCGAGUCCCGUACGGAACG: the yeast fitness was determined as 1. Regarding GUUUCGUUGGCGUAAUGGUAAUGCGUCUCCCUUCUAAGGAGCAGACUGCGGGUUCGGGUCCCGUACGGAACG, the yeast fitness was no more than 0.5. In the case of GUUCCGUUGGCGUAAUGGUAUCGCGUCUCCCUCCUAAGGAGAAGACUGCGGGUUCGAGUCGCGUACGGGACG, the yeast fitness was no more than 0.5. On to GUUACGUUGGCGUAAUGGUAACGCGUCUCCGUCCUAAGGGGAAGGGUACGGGUUCGAGUCCCGUACGGAACG, for which the yeast fitness is no more than 0.5. As for GUUCUGUUGGCGUAAUGGUAACGCCUCUCCCUCGUAAGGAGAAGACUGCGGGUCCGAGUCCCGUACGGCACG, the yeast fitness was no more than 0.5. As for GUUCCGUUGGCGUAAUGGUAACGCGUCCCCCUCCUAAGGAGGAGACUGCGGGUUCGAGUCCCGUUCGGCACG, the yeast fitness was no more than 0.5. Next, GUUCUGUUGGCGUAAUGCUAACGCGCCUCUGUCCUAAGGAGAAGACUGCGGGUUCGAGUCCCGUACGGACCG: no more than 0.5; GGUCCGUUGGCGUAAUGGUAACGCGUCUCCCUACUAAGGAGAAGAUUGCGGGUUCGAGUCGCGUACGGAACG: no more than 0.5; GUUCCCUUGGCGUAAUGGUAACGCGCCUCCAUCCUAACGAGAAGACUGCGGGUUCGAGUCCCGUACGGAACG: no more than 0.5.

Turning to GUUCUGUUGGCGUAAUGAUAACGCGUCUCACUCCUAAGGAGAAGACUGCGGGUUCGAAUCCCGUACAUAACG, the yeast fitness was no more than 0.5. For GUUCCGUUGGCGUAAUGGUAACGCCUCUCCCUCCUAAGGAGAAGACUGCGGGUUCGAGUCCCAUACGGAACG, the yeast fitness is 0.955.

For the variant GUUCCGUUGGCGUAACGCUAACGCGUCUCCCUCCUAAGGAGAAGCCUGCGGGUUCGCGUCCCGUACGCAACG, the yeast fitness is no more than 0.5. On to GUUCCGAUGGCGUAAUGGUAACGCGUUUCCCUCCUAAGGAGAAGACUGCGGCUUCGAGUCCCGUACGCAACG, for which the yeast fitness was no more than 0.5. Next, GUUCCGUUGGCGUAAUGGUAACGGGUCUCCCUCCUAUGGAGAAGACUGUGGGUUCGAGACCCGUACGGAACG: no more than 0.5; GUUCCGUUGGCGUAAUGGUAACGCGUGUUCCUCCUAAGGAGAAGACUGCGGGUUCGAGUCCCGUAUGGAACG: no more than 0.5.

For the variant GUUACGUUGGCGUGAUCGUAACGCGUCUCCCUCCUAAGGAGAAGACUGCGGGUUCGAGUCCCGUACGGAACG, the yeast fitness was no more than 0.5. For GUUCCGUUGGCGUAAAGGUAACGCGUCUCCCUCAUAAGGAGAAGACUGCGGGUUCGAGUCCCGCACGGAACG, the yeast fitness came to 0.513. With GUUCCGUUGGCGUAAUGGUAACGCGUCUCCCUCAUAAGGAGAAGACUGAGGGUUCGAGGCCCGUAUGGAACG, the yeast fitness was no more than 0.5.

Consider GGUCCGUUGGCGCAAUGGUAGCGCGUCUCCCUCCAAAGGAGAAGACUGCGGGUUUGAGUCCCGUACGGAGCG, for which the yeast fitness is no more than 0.5. Turning to GUUCCGCUGGCGUAAUGGCAACGCGCCUCCCUCUUAAGGAGAAGACUGCGGAUUCGAGACCCCUACGGAACG, the yeast fitness was no more than 0.5. Turning to GUUCCGUUGGCGUAAUGGUAUCGCGUGCCUCUCCUAAGGAGAAGACUGCGGGGUCGAGUCACGUACGGAACG, the yeast fitness was determined as 0.78. The result for GUUCCGCUGGUGUACUGGUAACGCGUCUCCCUCCUAAAGAGAAGGCUGCGGAUUCGAGUCGCGUACGGAACG reads no more than 0.5.
